Residue numbers refer to the chain shown, from its start. In names and notes the source's numbering stands. Results are given in words; binding and its absence hold for the method and conditions named. Some results given as binding are weak or reduced against the parent protein; the word gives no strength. For some assays here: Where a sequence is shown, tags or fusion partners need not be part of it. Values belong to the binder of their own block, whether it stands above or below them.
Tests used:
[1] = target: T1, human CD73-His protein (human, UniProt P21589 27-549); assay: ELISA as in Example 3 (biotinylated CD73-His on streptavidin plate), absorbance 450 nm
T1 sequence: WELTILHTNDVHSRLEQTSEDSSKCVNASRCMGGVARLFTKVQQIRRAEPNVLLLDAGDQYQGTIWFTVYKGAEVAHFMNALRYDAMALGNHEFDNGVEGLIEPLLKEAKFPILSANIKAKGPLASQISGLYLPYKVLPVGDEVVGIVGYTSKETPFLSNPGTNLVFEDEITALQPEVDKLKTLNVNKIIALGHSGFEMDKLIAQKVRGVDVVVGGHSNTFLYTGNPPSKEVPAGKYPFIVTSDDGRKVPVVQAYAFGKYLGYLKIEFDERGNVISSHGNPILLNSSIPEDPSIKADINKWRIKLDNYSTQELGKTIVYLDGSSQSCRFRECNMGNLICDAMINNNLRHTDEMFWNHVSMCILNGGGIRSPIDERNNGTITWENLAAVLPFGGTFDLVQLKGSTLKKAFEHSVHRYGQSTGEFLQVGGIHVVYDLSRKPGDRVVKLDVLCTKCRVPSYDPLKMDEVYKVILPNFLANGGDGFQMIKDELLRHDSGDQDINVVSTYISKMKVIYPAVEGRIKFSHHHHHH

[2] = target: T1, human CD73-His protein; assay: ELISA, biotinylated CD73-His on streptavidin plate
[3] = target: cynomolgus monkey CD73 protein (cynomolgus monkey); assay: SPR Biacore 8K, antibody captured on Protein A/G
[4] = target: T1, human CD73-His protein; assay: ELISA as in Example 3, antigen CD73-his, antibody titrated, absorbance 450 nm
[5] = target: T1, human CD73-His protein; assay: indirect ELISA, biotinylated CD73-His captured on streptavidin-coated plate, HRP goat anti-mouse IgG, absorbance 450 nm

binding [1]: binds | binding [2]: binds
B1: 48A11-HuV23 (antibody, human IgG4, V domains shown)
VH: QVQLVQSGAEVKKPGASVKVSCKASGYTFTSYWMHWVRQAPGQGLEWIGEINPSIGRTNYNEKFKSRATLTVDKSTSTAYMELSSLRSEDTAVYYCARRVYGTMDYWGQGTLVTVSS
VL: DIQMTQSPSSLSASVGDRVTITCKASQDINSYLSWFQQKPGKSPKLLIYRANIWVDGVPSRFSGSGSGQDYTFTISSLQPEDIATYYCLQYDELYTFGQGTKVEIK
notes: Humanized

B2: 48A11-HuV33 (antibody, human IgG4, V domains shown)
VH: B1 VH with A68V, V72R, K74T
VL: B1 VL
notes: Humanized
binding [1]: binds | binding [3]: binds | binding [4]: binds | binding [2]: binds

binding [1]: binds | binding [2]: binds
B3: 48A11-HuV22 (antibody, human IgG4, V domains shown)
VH: B1 VH
VL: B1 VL with L46T
notes: Humanized

B4: 56B10-HuV31 (antibody, human IgG4, V domains shown)
VH: QVQLQQSGAEVKKPGASVKVSCKASGYTFTRYYIYWVRQRPGQGLEWIGWIYPGNFNTKYNEKFKGRATLTADTSASTAYMELSSLTSEDTAVYYCARDVYDYAGFAYWGQGTLVTVSS
VL: DIQLTQSPSFLSASVGDRVTITCKASQGVATAVAWYQQKPGQSPKLLIYWASTRHTGVPDRFSGSGSGTEFTLTISSLQPEDFATYYCQQYSSYPWTFGQGTKVEIK
notes: Humanized
binding [1]: binds | binding [3]: binds | binding [4]: binds | binding [2]: binds

binding [1]: binds | binding [2]: binds
B5: 56B10-HuV23 (antibody, human IgG4, V domains shown)
VH: B4 VH with Q5V, A24T, R40A, T87R
VL: B4 VL with L4M, Q42K, D60S, Y87F
notes: Humanized

binding [1]: binds | binding [2]: binds
B6: 56B10-HuV32 (antibody, human IgG4, V domains shown)
VH: B4 VH
VL: B4 VL with Q42K, S43A, D60S
notes: Humanized

binding [1]: binds | binding [2]: binds
B7: 56B10-HuV33 (antibody, human IgG4, V domains shown)
VH: B4 VH
VL: B4 VL with L4M, Q42K, D60S, Y87F
notes: Humanized

binding [1]: binds | binding [2]: binds
B8: 56B10-HuV21 (antibody, human IgG4, V domains shown)
VH: B4 VH with Q5V, A24T, R40A, T87R
VL: B4 VL
notes: Humanized

binding [5]: binds | binding [2]: binds
B9: 56B10 (antibody, V domains shown)
VH: QVQLQQSGPELVKPGASVRISCKTSGYTFTRYYIYWVKQRPGQGLEWIGWIYPGNFNTKYNEKFKGKATLTADTSSSTAYMQLSSLTSEDSAVYFCARDVYDYAGFAYWGQGTLVTVSA
VL: DIVMTQSHRFLSTSVGDRVSITCKASQGVATAVAWYQQKPGQSPKLLIYWASTRHTGVPDRFTGSGSGTDFTLTISNVQSEDLADYFCQQYSSYPWTFGGGTKLEIK
notes: Murine hybridoma antibody; also called murine-derived antibody 56B10

binding [1]: binds
B10: 56B10-ch (antibody, human IgG4 S228P, kappa, V domains shown)
VH: B9 VH
VL: DIVMTQSHRFLSTSVGDRVSITCKASQGVATAVAWYQQKPGQSPKLLIYWASTRHTGVPDRFTGSGSGTDFTLTISNVQSEDLADYFCQQYSSYPWTFGGGTKLEIKR
notes: Chimeric: murine variable regions spliced with human IgG4 (S228P) and human kappa constant regions; also called chimeric antibody 56B10-ch

binding [1]: binds
B11: 48A11-ch (antibody, human IgG4 S228P, kappa, V domains shown)
VH: QVQLQQPGAELVKPGASVKLSCKASGYTFTSYWMHWVKQRPGQGLEWIGEINPSIGRTNYNEKFKSKATLTVDKSSSTAFMQLSSLTSEDSAVYYCARRVYGTMDYWGQGTSVTVSS
VL: DIKMTQSPSSMYASLGERVTITCKASQDINSYLSWFQQKPGKSPKTLIYRANIWVDGVPSRFSGSGSGQDYSLTISSLEYEDMGIYYCLQYDELYTFGGGTKLEIKR
notes: Chimeric: murine variable regions spliced with human IgG4 (S228P) and human kappa constant regions; also called chimeric antibody 48A11-ch

binding [5]: binds | binding [2]: binds
B12: 48A11 (antibody, V domains shown)
VH: B11 VH
VL: DIKMTQSPSSMYASLGERVTITCKASQDINSYLSWFQQKPGKSPKTLIYRANIWVDGVPSRFSGSGSGQDYSLTISSLEYEDMGIYYCLQYDELYTFGGGTKLEIK
notes: Murine hybridoma antibody; also called murine-derived antibody 48A11
